Data taken from patent publication US20220411867A1, “ASSESSMENT OF AN ANALYTE FROM A BIOLOGICAL SAMPLE DISPOSED ON A SUPPORT” (PerkinElmer Genetics, Inc., priority 2021, published 2022).
At least one structure is not confirmed: it was looked up by name or label, or the drawing left a doubt.

Assay: NAD detection and loss in spiked surrogate blood matrix dried on filter paper supports, LC MS/MS
Type: in vitro ADME, human

For `NC(=O)c1ccc[n+]([C@@H]2O[C@H](COP(=O)([O-])OP(=O)(O)OC[C@H]3O[C@@H](n4cnc5c(N)ncnc54)[C@H](O)[C@@H]3O)[C@@H](O)[C@H]2O)c1` [NAD, Nicotinamide adenine dinucleotide], which “loss of NAD on storage” value (Whatman FTA cards (EDTA, Tris, SDS, uric acid), 3 days of storage at 15-30° C.) is on record?
The value was “minimal loss”.

What about the NAD detection (Whatman FTA cards (EDTA, Tris, SDS, uric acid), after drying and after 3 days at 15-30° C.) of the same compound?
Its NAD detection is “detected in all spiking levels”.

And the “additional loss of NAD once dried” value (untreated support, 3 days of storage at 15-30° C.)?
Its value is “minimal”.

And the NAD detection (untreated support, freshly dried, endogenous (no NAD added), 5 or 45 μg/mL spikes)?
Its NAD detection is “not detected”.

And the NAD detection (untreated support, freshly dried, very high concentration spike (300 μg/mL))?
Its NAD detection is “detected”.
